Test results published in the supplement of paper PMC8256030.
This is one part of the list. Single values are uncertain here, since repeats match poorly.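 HEK293T cells were given each compound shortly before transfection with a reporter in which red mCherry is followed by the SARS-CoV-2 frameshift element and then GFP in the −1 frame, so GFP appears only after frameshifting.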

These compounds were tested on HEK293T (assay: percent viability (nuclei count) relative to control; higher = more viable cells). Details: 10 µM; 24 h.

Compound	percent viability
N[C@@H](C(=O)N[C@@H]1C(=O)N2C(C(=O)O)=C(Cl)CS[C@H]12)c1ccccc1	177%
N/C(=N\C(=O)c1nc(Cl)c(N)nc1N)NCc1ccccc1 [Benzamil]	196%
NNCCc1ccccc1	145%
COC(=O)N[C@H](C(=O)N[C@@H](Cc1ccccc1)[C@@H](O)CN(Cc1ccc(-c2ccccn2)cc1)NC(=O)[C@@H](NC(=O)OC)C(C)(C)C)C(C)(C)C [atazanavir]	282%
Clc1ccc(CSC(Cn2ccnc2)c2ccc(Cl)cc2Cl)cc1 (stereo not drawn) [sulconazole]	123%
CCCC1O[C@@H]2C[C@H]3[C@@H]4CCC5=CC(=O)C=C[C@]5(C)[C@H]4[C@@H](O)C[C@]3(C)[C@]2(C(=O)CO)O1 (stereo partly drawn) [Uceris]	227%
NNC(=O)c1ccncc1.Nc1ccc(C(=O)O)c(O)c1 [pasiniazid]	178%
CN(C)CC/C=C1\c2ccccc2CSc2ccccc21 [Dosulepin]	291%
CCCCC[C@](C)(O)/C=C/[C@@H]1[C@@H](C/C=C\CCCC(=O)O)[C@@H](O)C[C@H]1O [carboprost]	346%
Cc1ccccc1N1CCN(CCc2nnc3n2CCCC3)CC1	97%
COC(=O)[C@@H](N)CS	469%
Cn1c(=O)cnn(CCCCN2CCN(c3ncccn3)CC2)c1=O [eptapirone]	107%
CC1CCN(C(=O)[C@@H](CCn2cccc2C#N)NS(=O)(=O)c2cccc3[nH]ccc23)CC1	136%
Cc1cccc(C)c1NC(=O)CC12CCCN1CCC2 [pilsicainide]	216%
COc1ccc2c(c1)C(=O)N(CCc1ccc(S(=O)(=O)NC(=O)NC3CCCCC3)cc1)C(=O)C2(C)C [Gliquidone]	261%
N[C@@H](Cc1cc(I)c(Oc2cc(I)c(O)c(I)c2)c(I)c1)C(=O)O	98.6%
C=C[C@]1(C)C[C@@H](OC(=O)CSCCN(CC)CC)[C@]2(C)[C@H](C)CC[C@]3(CCC(=O)[C@H]32)[C@@H](C)[C@@H]1O [tiamulin]	89.6%
c1ccc(CCNc2nc(-c3ccccc3)cs2)cc1 [fanetizole]	229%
CC(=O)N[C@H]1[C@H](O[C@H]2[C@H](O)[C@@H](NC(C)=O)C(O)O[C@@H]2CO)O[C@H](CO)[C@@H](O)[C@@H]1O (stereo partly drawn)	221%
COc1ccc([C@]2(C#N)CC[C@@H](C(=O)O)CC2)cc1OC1CCCC1 [cilomilast]	180%
CN1CCC(=C2c3ccccc3Sc3ccccc32)CC1 [pimethixene]	479%
CN1CCN(CCCN2c3ccccc3Sc3ccc(Cl)cc32)CC1	160%
COCc1c(C(C)C)nc(C(C)C)c(/C=C/[C@@H](O)C[C@@H](O)CC(=O)O)c1-c1ccc(F)cc1 [Cerivastatin]	42.7%
CC1(C)[C@@H](O)CC[C@]2(C)[C@H]3C(=O)C=C4[C@@H]5C[C@@](C)(C(=O)O)CC[C@]5(C)CC[C@@]4(C)[C@]3(C)CC[C@@H]12 [enoxolone]	162%
CCOc1ccc(/C=C2\NCCc3cc(OCC)c(OCC)cc32)cc1OCC [Drotin]	135%
CN1CCN(c2c(F)cc3c(=O)c(C(=O)O)cn(CCF)c3c2F)CC1 [fleroxacin]	272%
C=C1c2c(Cl)ccc(O)c2C(O)=C2C(=O)[C@]3(O)C(O)=C(C(N)=O)C(=O)[C@@H](N(C)C)[C@@H]3[C@@H](O)[C@H]12.O=C(O)c1cc(S(=O)(=O)O)ccc1O	140%
CN(C)[C@@H]1C(=O)C(C(N)=O)=C(O)[C@@]2(O)C(=O)C3=C(O)c4c(O)cccc4C[C@H]3C[C@@H]12 [sancycline]	355%

Some of these compounds in order of molecular weight, smallest number first.
Compound	percent viability
CC(=O)N[C@H]1[C@H](O[C@H]2[C@H](O)[C@@H](NC(C)=O)C(O)O[C@@H]2CO)O[C@H](CO)[C@@H](O)[C@@H]1O (stereo partly drawn)	221%
C=C[C@]1(C)C[C@@H](OC(=O)CSCCN(CC)CC)[C@]2(C)[C@H](C)CC[C@]3(CCC(=O)[C@H]32)[C@@H](C)[C@@H]1O [tiamulin]	89.6%
COC(=O)N[C@H](C(=O)N[C@@H](Cc1ccccc1)[C@@H](O)CN(Cc1ccc(-c2ccccn2)cc1)NC(=O)[C@@H](NC(=O)OC)C(C)(C)C)C(C)(C)C [atazanavir]	282%
